Results: the supplement of paper PMC5949888
Most values lie at the floor of the assay. Slopes are relative: functional sequences can read slightly below zero.

The substances below were run on Saccharomyces cerevisiae PS128 hsf1 delta, HSF1(1-493) fusion (assay: growth estimate (transactivation domain function in HSF1 fusion, heat-shock survival) (a.u. (slope of normalised read count over time)); higher = stronger growth at 37°C, i.e. more transactivation activity). Conditions: library: random library.

Substance	growth estimate
YVYRDAHELSGAHRLSN	< -0.25
VFGAQGGWYLRQFGLFWESG	< -0.25
GMPDGRPDFTIVTGDADIAP	< -0.25
DWTQGPGPSVPSVTPVCLVA	< -0.25
PTDENCRARRVYLLEMSPIR	< -0.25
CRRWVVCRLARLGMPLQPGI	< -0.25
LTDVILIHNLQCPRVRHHEP	< -0.25
LSIVCNGNGIGARNASSGVR	< -0.25
NENTRDSGSSPWIIQFS	< -0.25
LAWMPQHALQVDQRLHRCLT	< -0.25
GKAIGVAIGIFPNRIRL	< -0.25
GCAQIRLRKTVLSLGYSGRR	< -0.25
GVEESSGWGVIYLARIGLPN	< -0.25
TLHMFVITRAKRARSASKPM	< -0.25
GSRMPARFGRDKSSRTPD	< -0.25
VVVF	< -0.25
LREGHCSLIEKVCTLRRAAR	< -0.25
HLLCDCKRGWHGFK	< -0.25
LAWSPWD	-0.111
LGRCLCFSTCGKHTGFFHK	< -0.25
HISAPGHAT	-0.229
SRVCLCVRFAHWPVTASGGE	< -0.25
PLYRPSLAGT	< -0.25
VLR	< -0.25
RHSSTLGLSRIRWLLDQRRP	< -0.25

Substance	growth estimate
LRTPGRDSYYSNPTIVFCHF	< -0.25
HCRNY	< -0.25
IYETGVWQRPPATDPLKPSF	< -0.25
QQSQMT	< -0.25
GVIL	< -0.25
RTESRSRSRLHRPDNS	< -0.25
RTLVASKCRIPLNRYYVVSA	-0.234
ASKGTVRARLCLSDLLSAWA	< -0.25
TPAERMNRTAQRPNKDSSPL	-0.222
ENYRGCNVQNTRPGNATSPV	< -0.25
SLFEQFPCIKGNTRQKISWQ	< -0.25
SRIQDKDPLSTGQQRDYVID	< -0.25
RCISRIYQYSCPLSTPVGGL	< -0.25
ICVDRQV	< -0.25
PLA	< -0.25
DGGFPATGHYLILSPAGWAA	< -0.25
HTREKMPSPAGLAPVLFCIV	< -0.25
FDRGSGGCIRYLLCRVGTA	< -0.25
LLRV	< -0.25
SWPASMRVSRLRPDKTEFPG	< -0.25
KLAEAHNK	< -0.25
RCFTRSDDKSLYVQTD	< -0.25
RSGPCADPE	< -0.25
TRVLPADDKFERSGGASSMR	< -0.25
HCYDGISVDVRVPVGRLK	< -0.25

Substance	growth estimate
YCVITHRSVVLAHSTGEKQP	< -0.25
CTGFMR	< -0.25
FFCISHDLERT	< -0.25
TSGGSCCVARWLLPDQNDLY	< -0.25
GRFQ	< -0.25
SNRASLHWMNSLALSWFTSF	< -0.25
SATLCMTSRVSLLVRHTESR	< -0.25
RNPL	< -0.25
RCNIK	< -0.25
LLSQCPPAS	< -0.25
GGLLNPFLWSK	< -0.25
LSTREVYTWHNG	< -0.25
STRVTLPAVGSSVHDKL	< -0.25
VIE	< -0.25
YHGGLL	< -0.25
AHCLSVGHSSETYRGDQTGG	< -0.25
TCSRSP	< -0.25
LLVWTNTFGLA	< -0.25
KWREARAEDDDRRV	< -0.25
INRIILGYKYASPGGCRGRV	< -0.25
LTLWPWQVR	< -0.25
NVCSEHQEGQFVTRVSRSRA	< -0.25
SGRF	< -0.25
TQVHAELYWVPIE	< -0.25
CRPGSSILGQFKA	-0.243

3 entries picked at random from the list so far, as already listed:
Substance	growth estimate
CTGFMR	< -0.25
LLVWTNTFGLA	< -0.25
SGRF	< -0.25

Single entries from the entries so far:
GVIL | growth estimate: < -0.25
GSRMPARFGRDKSSRTPD | growth estimate: < -0.25

The list continues.

Substance	growth estimate
SSSVSKDHVPGLCR	< -0.25
EDVGRAP	< -0.25
QSRHSELEADILTQTVDATD	-0.223
SMFEFRESVSLEV	< -0.25
SRTEGQMKWEEASFR	-0.16
TRTL	< -0.25
ARETCLPATKVPGSF	< -0.25
GPVGVIGVILDTAASS	-0.237
LPDGQ	< -0.25
EPWFLPRSLAIRLVLAE	< -0.25
GNQHTGFSR	< -0.25
RRM	< -0.25
LIRDAAGGVSRLRGHMPALA	< -0.25
YGVARVPLSRD	< -0.25
LSERSST	< -0.25
VIEWSLTGVRRGCWNC	< -0.25
SVPLIFTNLDI	-0.204
LESESNIGLLSVRRLVKEVM	< -0.25
VKPSLRRLHVGFYTS	< -0.25
KSRLLVGGRPFGRSLRQSLG	< -0.25
GSLQFDF	< -0.25
EVLSGTKAKQSSLGVSSVAT	< -0.25
PVVKDTSEGRA	< -0.25
VIENLLLSG	< -0.25
KRTVRSPHARADHWM	< -0.25

Substance	growth estimate
TGHY	< -0.25
VPTGFE	< -0.25
TAGGHVVGSRLIGPCSKVYG	< -0.25
VKTSDKVLLPRAKLTCYTNR	< -0.25
IQSSAA	< -0.25
EWDNRQLGFETSVRARSGSE	< -0.25
YLRSLGNSGFKSLRSSISDL	< -0.25
ENYSSYYQPERTKPCNMTWV	< -0.25
IKAISPRARGVPGHEAGVYR	< -0.25
KAVWTHISADLISTLRAPFT	< -0.25
PEGVYSSCTLRLT	< -0.25
VSGVQSCSKFGSPRSVRSFT	< -0.25
PGSAARFLGIPPLSGGLLRS	< -0.25
RSLVHWD	< -0.25
VQQLRNVKNTETTLFSLEKG	< -0.25
NQWLGYL	-0.0975
RSPDPMGSRLLAASLVLRYK	-0.246
LPKYSVVYREGLQHFHAPMV	< -0.25
PDDINVRLA	< -0.25
VQW	< -0.25
RRKVREGQVRRCLGRQTLAS	< -0.25
FLLRR	< -0.25
SGSLPEYGGHL	< -0.25
LEPRDAGYNLPHLNTPVGFH	< -0.25
GGITKNSVKSSIRVLS	< -0.25

Substance	growth estimate
DYCERRCLNRMETN	< -0.25
ALGHSVRHSTYLQWQTKAES	< -0.25
SSLGTVGGAWLMF	< -0.25
RPGPELEVCATSR	< -0.25
VITYRTTQTANK	< -0.25
IPREVCVLRGYPARAGMRPR	< -0.25
ICVRDRRYSDLAPLQ	< -0.25
SLHVQSLT	< -0.25
CGQTIRTIQPEDCVRASIKG	< -0.25
SERLPASLDCRKLPGKKASH	< -0.25
SSLSHMARLNVSIALGCTYR	< -0.25
QLLSGDGSVDSGRLVRDES	< -0.25
LRHTRGGSGMSLGHVVKGRP	< -0.25
TEGT	< -0.25
GHPIASL	< -0.25
RESVVARSGNTWWIG	< -0.25
TGVQRRQISQRGILGVWCG	< -0.25
HVRNPIRAVSKTCSSVVT	< -0.25
HGSIPTENLLVTGHHLWIGT	< -0.25
GSSLCSVLVSGIESHASPFD	< -0.25
